Structures were worked out from names or drawings and are uncertain.
What was measured:
[1] = Pharmacokinetic profile in mice; conditions: dosed intravenously or intraperitoneally
[2] = test system: FLT-3 and pSTAT5 in MV4-11 xenograft tumours; test: In vivo MV4-11 xenograft model, tumour westernblot; conditions: once a day at 30 or 100 mg/kg for 3 days
kinases = test: In vitro kinase binding, KINOMEscan platform (DiscoverRx); conditions: 1 μM, competition assay
MV4-11 cells = test: Apoptosis induction shown by cleaved caspase-3 (westernblot)
FLT-3 = FLT-3 (Homo sapiens, UniProt P36888, INS600HVDFREYEYD); test: Cellular assay of target protein degradation (MV-4-11 cells, westernblot); format: cell-based; conditions: read-out: DC50 [cell line]; Table 3; MV4-11, FLT-3 degradation, 24 hours

By UniProt entry, the sequences of proteins in these tests, tags left out. Chains listed by the source or under a name are the forms on record and can include a tag or linker.
UniProt P36888, with tags, fused parts or gaps with the stated changes limits assumed: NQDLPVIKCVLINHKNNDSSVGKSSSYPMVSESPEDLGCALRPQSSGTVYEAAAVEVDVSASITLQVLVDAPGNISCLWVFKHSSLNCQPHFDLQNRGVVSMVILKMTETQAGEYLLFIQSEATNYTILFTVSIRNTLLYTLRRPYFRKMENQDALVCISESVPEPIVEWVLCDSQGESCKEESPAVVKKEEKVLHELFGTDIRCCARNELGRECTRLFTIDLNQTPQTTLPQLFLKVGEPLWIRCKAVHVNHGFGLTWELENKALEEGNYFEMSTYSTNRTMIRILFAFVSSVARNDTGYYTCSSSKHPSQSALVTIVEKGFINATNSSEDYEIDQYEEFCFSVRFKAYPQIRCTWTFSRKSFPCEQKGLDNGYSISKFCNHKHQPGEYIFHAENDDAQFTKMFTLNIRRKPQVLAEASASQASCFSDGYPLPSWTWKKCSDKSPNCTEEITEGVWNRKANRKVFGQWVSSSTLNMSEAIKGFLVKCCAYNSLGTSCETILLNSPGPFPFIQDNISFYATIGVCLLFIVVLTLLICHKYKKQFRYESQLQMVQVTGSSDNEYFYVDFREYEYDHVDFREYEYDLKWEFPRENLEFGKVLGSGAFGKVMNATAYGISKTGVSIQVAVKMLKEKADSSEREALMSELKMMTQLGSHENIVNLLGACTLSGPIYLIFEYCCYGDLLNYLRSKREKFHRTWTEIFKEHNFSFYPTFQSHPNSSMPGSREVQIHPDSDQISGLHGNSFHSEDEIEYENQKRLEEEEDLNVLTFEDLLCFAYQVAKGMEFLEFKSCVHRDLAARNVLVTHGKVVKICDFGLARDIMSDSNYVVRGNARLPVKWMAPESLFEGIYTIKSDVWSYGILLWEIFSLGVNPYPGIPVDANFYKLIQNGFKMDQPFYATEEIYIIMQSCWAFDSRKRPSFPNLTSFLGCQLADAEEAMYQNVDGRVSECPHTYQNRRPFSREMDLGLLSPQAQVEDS

**Q.** For `Cc1ncsc1-c1ccc(CNC(=O)C2CC(O)CN2C(=O)C(NC(=O)CCOCCOCCOc2ccc3c(c2)sc2nc(-c4ccc(NC(=O)Nc5cc(C(C)(C)C)on5)cc4)cn23)C(C)(C)C)cc1` (stereo not drawn), which “PK profile: exposure (FIG. 5)” value [1] is on record?
**A.** demonstrating exposure in mice

**Q.** What about the “FLT-3 level in xenograft tumours (FIG. 7A/7B)” value [2] of the same molecule?
**A.** decrease

**Q.** And the “pSTAT5 level in xenograft tumours (FIG. 7A/7B)” value [2]?
**A.** decrease

**Q.** And the “Kinase selectivity (KINOMEscan Dendrogram, FIG. 6)” value (kinases)?
**A.** more selective than Quizartinib

**Q.** What about the “Induction of apoptosis (cleaved caspase-3, FIG. 3A/3B)” value (MV4-11 cells) of the same molecule?
**A.** ability to induce apoptosis

**Q.** What about the DC50 (FLT-3) of the same molecule?
**A.** 5 nM

Source: patent US10806737B2
